For at least one compound, name, drawing or mass did not settle the structure.
Test system: MCF7 cells
Experiment: Luminescence-based MCF7 cell proliferation assay, dose-response matrix
Details: 5 days (120 hours)
Procedure: MCF7 cells were seeded at a density of 2×10^4 cells in 200 μL of media per well in 2 technical replicate, 96-well black, clear-bottom plates and incubated overnight at 37° C. in a 5% CO2 incubator. […] DMSO was used as the vehicle control. The plates were then incubated for 5 days at 37° C. in a 5% CO2 incubator.
The plates were equilibrated to room temperature for approximately 30 minutes. 50 μL of Cell-Titer Glo (Promega) was added to all wells of the plates, covered with aluminum foil and shaken gently by hand for less than 1 minute. The plates were then incubated for 10 minutes at room temperature. Luminescence was recorded using Envision Multi Label Reader. To assess cell viability, luminescence values for drug-treated wells were normalized to average luminescence of vehicle (DMSO) wells to obtain percent viability relative to control cells. The data were analyzed with the Combenefit software.

Row | SMILES | MCF7 cell proliferation, single agent
1 | CCN1CCN(Cc2ccc(Nc3ncc(F)c(-c4cc(F)c5nc(C)n(C(C)C)c5c4)n3)nc2)CC1 [Abemaciclib] | dose-dependent decrease
2 | CC1(C)CCC(CN2CCN(c3ccc(C(=O)NS(=O)(=O)c4ccc(NCC5CCOCC5)c([N+](=O)[O-])c4)c(Oc4cnc5[nH]ccc5c4)c3)CC2)=C(c2ccc(Cl)cc2)C1 [Venetoclax] | dose-dependent decrease
